This is one part of the list. Shown are side measurements of this screen, not its main read-out; they come without a call. The list favours compounds with an active or inconclusive main result. The note in brackets gives the kind of curve behind each potency; many fits are weak.
Experiment: qHTS Assay for Lipid Storage Modulators in Drosophila S3 Cells;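 on cell number change: cells counted by Cell Tracker Red CMTPX staining in the red channel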
Settings: BODIPY lipid droplet fluorescence, 18-24 h; for cell number change: measured here: cell count max response, cells fed with added oleic acid
How it was run: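 Drosophila S3 cells loaded with oleic acid (400 uM, as added) and compounds at several concentrations; lipid droplets imaged by 488-nm laser-scanning cytometry, 500–530 nm intensity and object ratio to cell channel. Percent activity normalized to 20 uM Triacsin C.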

[1] = measured here: cell number channel AC50, cells fed with added oleic acid
[2] = measured here: lipid fluorescence (Fed channel) AC50, cells fed with added oleic acid

| SMILES | cell number change [%] | AC50 [1] | AC50 [2] |
| --- | --- | --- | --- |
| CC(=O)Oc1ccc2oc(=O)c3c(c2c1)CCCN3C(=O)CN1CCN(c2ncccn2)CC1 | -33 | 18.4 µM [falling, single point] |  |
| c1ccc(-c2cn(CC3CCCCC3)nn2)cc1 | 10.2 |  |  |
| CC(=O)c1cccc(NC(=O)NCc2ccco2)c1 |  | 7.31 µM [falling, single point] | 6.51 µM [falling, single point] |
| CC(C)=NNc1nc(-c2ccc([N+](=O)[O-])cc2)cs1 | 93.5 | 18.4 µM [rising, single point] |  |
| COc1cc2c(C#N)c(N3CCCC3)nc(N)c2c(N)n1 |  |  | 10.3 µM [falling, partial curve] |
| CC1=NN(C(N)=S)C(=O)C1N=Nc1cccc(Cl)c1 (configuration not stated) | -49.1 | 6.51 µM [falling, full curve, poor fit] | 8.2 µM [falling, partial curve] |
| O=C(c1ccc2c(c1)C(=O)N(Cc1ccco1)C2O)N1CCOCC1 (configuration not stated) | -59.2 | 1.3 µM [falling, full curve] | 1.03 µM [falling, full curve] |
| Cc1cccc(N2CCN(C(=O)c3ccccn3)CC2C)c1 (configuration not stated) |  |  | 2.91 µM [falling, single point] |
| CC[C@@H](C)[C@H](NC(=O)Cc1c(C)c2c(cc(C)c3c(C)c(C)oc32)oc1=O)C(=O)O | 24.8 | 6.51 µM [rising, single point] | 13 µM [rising, partial curve] |
| COCCN(CC(=O)NCc1ccc(F)cc1)C(=O)CCC(=O)Nc1ccccn1 | 9.35 |  |  |
| CC(=O)c1cccc(OCc2cc(C(=O)N3C[C@H]4CC[C@H]3C4)no2)c1 | 5.89 |  |  |
| COC(=O)c1ccccc1C(=O)N1CCCC(CNC(=O)c2ccc(F)cc2)C1 (configuration not stated) | -6.49 |  |  |
| COc1ccc(Nc2nc(Cl)nc(NCCO)n2)cc1 | 11.2 | 0.146 µM [falling, full curve, poor fit] | 6.51 µM [falling, single point] |
| O=C(NCc1ccc2c(c1)OCO2)c1cnc2n(c1=O)CCS2 | 21.8 |  | 29.1 µM [rising, single point] |
| COCCNC(=S)N(CCc1c(C)[nH]c2ccc(Cl)cc12)Cc1cccnc1 | 23.1 |  | 2.59 µM [rising, full curve, poor fit] |
| COc1ccc(OCC(=O)NCc2n[nH]c(=O)c3ccccc23)cc1 | -24.8 |  | 2.91 µM [falling, partial curve, poor fit] |
| CCOC(=O)CSc1nnc(CSc2nc3sc4c(c3c(=O)[nH]2)CCCC4)n1-c1ccccc1 | 34.6 | 23.1 µM [rising, single point] |  |
| COCCn1nnnc1SCC(=O)c1ccccc1 |  |  | 25.9 µM [falling, partial curve] |
| O=C(Nc1ccc2[nH]c3c(c2c1)CCCC3)c1ccco1 | 229 | 9.2 µM [rising, partial curve] | 6.51 µM [rising, single point] |

| SMILES | cell number change [%] | AC50 [1] | AC50 [2] |
| --- | --- | --- | --- |
| Cc1cc2n(n1)C(c1ccco1)Nc1ccccc1-2 (configuration not stated) | 17.8 |  |  |
| COc1ccc(C(CNC(=O)c2oc3c(Cl)cccc3c2C)N2CCCC2)cc1 (configuration not stated) |  | 6.51 µM [rising, single point] |  |
| COc1ccc(S(=O)(=O)N(CC(=O)N/N=C/c2cccs2)c2ccc(C)cc2)cc1OC | 12.4 |  | 0.731 µM [rising, full curve] |
| Cc1ccc(-c2nnc(SCC(=O)NC3CCCc4ccccc43)n2N)cc1 (configuration not stated) | -18.6 |  | 3.26 µM [falling, partial curve] |
| CN(C(=O)COC(=O)c1cccc(S(=O)(=O)N2CCOCC2)c1)C1CCS(=O)(=O)C1 (configuration not stated) | -3.95 |  |  |
| Cc1cc(C)c(S(=O)(=O)NC(CC(=O)O)c2cccc([N+](=O)[O-])c2)c(C)c1 (configuration not stated) | -21.1 |  | 29.1 µM [falling, single point] |
| O=C(Cc1ccccc1)NCC(=O)N1CCCCC1 | -13.2 | 0.0231 µM [falling, full curve] | 0.00517 µM [falling, full curve, poor fit] |
| COc1cccc(C(=O)NNC(=O)C(=O)Nc2ccc(C)cc2)c1 | 27.4 | 0.13 µM [rising, full curve, poor fit] |  |
| [O-]/C(=C(\C(=S)Nc1ccc(Cl)cc1)[n+]1ccccc1)c1ccc(OC(F)F)cc1 | -23.7 |  | 29.1 µM [falling, single point] |
| Cc1csc(NC(=O)CSc2nccn2Cc2ccco2)n1 | -34.6 |  | 20 µM [falling, single point] |
| Cc1cc2sc(NC(=O)c3ccco3)nc2cc1Cl | -6.91 |  | 0.082 µM [rising, full curve, poor fit] |
| CN1CCN(C(=O)c2ccc(-n3cccc3)cc2)CC1 | 27 |  | 23.1 µM [rising, partial curve, poor fit] |
| COC(=O)c1sccc1NC(=O)Cn1nnc(-c2ccccc2C)n1 |  | 6.51 µM [rising, single point] | 6.51 µM [rising, single point] |
| COc1ccc(OC)c(/C=C/c2[nH]c(=O)[nH]c(=O)c2[N+](=O)[O-])c1 | -19.6 |  | 23.1 µM [falling, single point] |
| COCCCn1c(C(=O)NCCN2CCOCC2)cc2c(=O)n3cccc(C)c3nc21 | 13.8 | 0.164 µM [rising, full curve, poor fit] |  |
| CCCCC[C@H](O)/C=C/[C@@H]1[C@@H](C/C=C\CCCC(=O)O)[C@@H](O)C[C@H]1O | 20.5 |  | 32.6 µM [falling, single point] |
| CCn1nnnc1SCC(=O)N(C1CCCCC1)C1CCCCC1 | 12.4 |  | 0.00461 µM [rising, full curve, poor fit] |
| CC(C)OCCCNC(=O)c1cccc(NC(=O)c2ccccc2)c1 | 16.8 |  | 0.92 µM [rising, full curve] |
| COc1ccc(CCNC(=O)/C(C#N)=C/c2cccc(OCc3ccccc3)c2)cc1OC | -25 |  | 29.1 µM [falling, single point] |

Some values from above.
Value for Cc1cc(C)c(S(=O)(=O)NC(CC(=O)O)c2cccc([N+](=O)[O-])c2)c(C)c1 (configuration not stated) under cell number change [%]: -21.1
Value for Cc1csc(NC(=O)CSc2nccn2Cc2ccco2)n1 under cell number change [%]: -34.6

Reference: PubChem BioAssay AID2685 (National Center for Advancing Translational Sciences (NCATS), 2010)
